PubChem BioAssay AID901 (National Center for Advancing Translational Sciences (NCATS), 2007)
The list shows a part of the results. The main result of the screen is listed elsewhere. These columns were measured beside it and carry no call. Compounds called inactive in the main read-out are mostly missing here. Words in brackets tell the shape of the fitted curve; partial curves, single points and poor fits give uncertain potencies.

assay: qHTS Assay for Identifying the Cell-Membrane Permeable IMPase Inhibitors; conditions: CHO-M1 cells, IP1 accumulation, HTRF TR-FRET ratio; measured here: donor channel 620 nm AC50

Question: Which AC50 does the source give for `CC(C)(C)c1ccc(/C([O-])=C(/C(=S)NCc2ccco2)[n+]2ccccc2)cc1` here?
Answer: The AC50 was 25.1 µM [rising, single point].

Question: For `COCCCNc1ncnc2sc3c(c12)CCC(C)C3` (configuration not stated), which AC50 is on record?
Answer: Its AC50 is 0.0251 µM [falling, single point].

Question: For `CC1Cc2ccccc2N1C(=O)CCNS(=O)(=O)c1cccc2nsnc12` (configuration not stated), which AC50 is on record?
Answer: Its AC50 is 10 µM [falling, partial curve, poor fit].

Question: Which AC50 does the source give for `NC(=O)C1CCN(Cc2nc3ccccc3c(=O)[nH]2)CC1` here?
Answer: The AC50 was 31.6 µM [falling, single point].

Question: For `Cc1cc(C)c(C#N)c(SCC(=O)N2CCN(Cc3ccccc3)CC2)n1`, which AC50 is on record?
Answer: The AC50 was 0.316 µM [falling, full curve].

Question: Which AC50 does the source give for `C=CCNC(=O)CSc1nnc(-c2ccncc2)n1CCc1ccccc1` here?
Answer: The AC50 was 0.0251 µM [rising, full curve, poor fit].

Question: For `CCCCCC(=O)NC(NC(=S)N1CCOCC1)C(Cl)(Cl)Cl` (configuration not stated), which AC50 is on record?
Answer: Its AC50 is 0.631 µM [falling, full curve].

Question: With `CCOc1ccc(N2C(=O)CC(/C=C3/N(C)c4ccccc4C3(C)C)C2=O)cc1` (configuration not stated) as the molecule, how does the AC50 read?
Answer: The AC50 was 6.31 µM [falling, full curve, poor fit].

Question: With `COc1ccc(-c2cn3c(C)c(C(=O)NCCN4CCOCC4)sc3n2)cc1` as the molecule, how does the AC50 read?
Answer: Its AC50 is 0.631 µM [falling, single point].

Question: With `COc1ccc(-c2cc(C(F)(F)F)n3nc(C(=O)Nc4cccc(C(F)(F)F)c4)c(Br)c3n2)cc1` as the molecule, how does the AC50 read?
Answer: Its AC50 is 0.794 µM [falling, full curve, poor fit].

Question: Which AC50 does the source give for `CCN(Cc1ccccc1)C(c1ccncc1)c1nnnn1C(C)(C)C` (configuration not stated) here?
Answer: Its AC50 is 0.0355 µM [rising, full curve].

Question: For `COc1ccc(CNC(=O)C2CCCN2S(=O)(=O)c2ccc(C)cc2)cc1` (configuration not stated), which AC50 is on record?
Answer: Its AC50 is 2.51 µM [falling, single point].

Question: With `CN1Cc2cc(C(=O)c3ccccc3O)cnc2NC1=O` as the molecule, how does the AC50 read?
Answer: Its AC50 is 0.02 µM [rising, full curve, poor fit].

Question: With `CSc1nc(-c2ccco2)nn1S(C)(=O)=O` as the molecule, how does the AC50 read?
Answer: The AC50 was 5.62 µM [falling, single point].

Question: With `COCCNC(=O)C(c1cccs1)N(Cc1cccs1)C(=O)Cn1nnc2ccccc21` (configuration not stated) as the molecule, how does the AC50 read?
Answer: Its AC50 is 0.00501 µM [falling, full curve, poor fit].

Question: Which AC50 does the source give for `CC(C(=O)O)N1C(=O)CSC1=S` (configuration not stated) here?
Answer: The AC50 was 0.1 µM [falling, full curve, poor fit].

Question: With `COc1cc(C(=O)N/N=C\c2ccccc2)c([N+](=O)[O-])c(OC)c1OC` as the molecule, how does the AC50 read?
Answer: Its AC50 is 35.5 µM [falling, single point].

Question: For `Nc1ccc2oc(=O)c3ccccc3c2c1`, which AC50 is on record?
Answer: Its AC50 is 0.398 µM [falling, partial curve, poor fit].

Question: With `Cc1nc(-c2c(-c3ccc(O)cc3O)noc2C(F)(F)F)cs1` as the molecule, how does the AC50 read?
Answer: Its AC50 is 0.251 µM [rising, full curve].

Question: Which AC50 does the source give for `Cc1cc(C)cc(-n2ccnc2SCC(=O)Nc2ccc3c(c2)OCCO3)c1` here?
Answer: The AC50 was 31.6 µM [rising, single point].

Question: For `CS(=O)(=O)NCc1ccc(C(=O)NCc2ccccc2)cc1`, which AC50 is on record?
Answer: The AC50 was 2.24 µM [falling, single point].

Question: With `CC(C)C(=O)Nc1cccc(-c2nc3ccccc3c(=O)o2)c1` as the molecule, how does the AC50 read?
Answer: Its AC50 is 31.6 µM [falling, single point].

Question: For `CCCCn1c(NS(=O)(=O)c2ccc(C)cc2)c(S(=O)(=O)c2ccccc2)c2nc3ccccc3nc21`, which AC50 is on record?
Answer: The AC50 was 22.4 µM [rising, single point].

Question: For `COc1ccc(-n2c(COc3ccc(Cl)cc3)nnc2SCc2ccc(C#N)cc2)cc1`, which AC50 is on record?
Answer: The AC50 was 5.62 µM [falling, single point].

Question: Which AC50 does the source give for `COc1ccc(C(=O)N2CCN=C2SC)cc1OC` here?
Answer: The AC50 was 5.01 µM [rising, partial curve].

Question: With `Cc1cc(-c2ccc(Cl)cc2)c(C#N)c(N)n1` as the molecule, how does the AC50 read?
Answer: Its AC50 is 25.1 µM [rising, single point].

Question: With `O=C(c1ccc(C#CC2(O)CCCCC2)cc1)N1CCN(Cc2ccccc2)CC1` as the molecule, how does the AC50 read?
Answer: The AC50 was 0.0158 µM [rising, partial curve, poor fit].

Question: Which AC50 does the source give for `CCC(Sc1nc(-c2ccccc2)c(C#N)c(=O)[nH]1)C(=O)Nc1cc(C)on1` (configuration not stated) here?
Answer: Its AC50 is 15.8 µM [rising, partial curve].

Question: With `COc1ccc(-c2cc(C(F)F)n3ncc(C(=O)NCCCN4CCCC4=O)c3n2)cc1` as the molecule, how does the AC50 read?
Answer: The AC50 was 0.794 µM [falling, full curve, poor fit].

Question: Which AC50 does the source give for `Cc1ccc(N(C(=O)CNC(=O)c2ccco2)C(C(=O)NC2CCCC2)c2cccnc2)cc1C` (configuration not stated) here?
Answer: Its AC50 is 31.6 µM [rising, single point].

Question: Which AC50 does the source give for `O=C(CC(NCc1cccnc1)C(=O)O)Nc1ccc(F)cc1` (configuration not stated) here?
Answer: Its AC50 is 0.158 µM [falling, full curve].

Question: With `CCOC(=O)N1CCN(C(=O)CSc2ncccn2)CC1` as the molecule, how does the AC50 read?
Answer: The AC50 was 15.8 µM [falling, single point].

Question: Which AC50 does the source give for `COc1ccc(NC(=O)c2sccc2SCC#N)cc1` here?
Answer: The AC50 was 15.8 µM [falling, partial curve].

Question: With `Cn1c(SCc2cccc(C(F)(F)F)c2)nnc1-c1ccco1` as the molecule, how does the AC50 read?
Answer: The AC50 was 0.0251 µM [rising, full curve, poor fit].

Question: For `Cc1ccc(C(=O)Nc2ccc(S(=O)(=O)N3CCN(C)CC3)cc2)cc1`, which AC50 is on record?
Answer: Its AC50 is 20 µM [falling, partial curve, poor fit].

Question: Which AC50 does the source give for `O=C(CSc1ncnc2c1cnn2CCc1ccccc1)Nc1cccc(C(F)(F)F)c1` here?
Answer: Its AC50 is 0.1 µM [falling, full curve, poor fit].

Question: For `Cc1ccc(C)c(-n2c(N)c(C#N)c3nc4ccccc4nc32)c1`, which AC50 is on record?
Answer: The AC50 was 17.8 µM [rising, single point].

Question: Which AC50 does the source give for `N#C/C(=C/c1ccc2c(c1)OCO2)C(=O)NCCc1c[nH]c2ccccc12` here?
Answer: Its AC50 is 0.00631 µM [rising, full curve, poor fit].

Question: For `CCc1nnc(NC(=O)CSc2nnc(Cc3ccc(OC)cc3)o2)s1`, which AC50 is on record?
Answer: The AC50 was 0.1 µM [falling, full curve, poor fit].

Question: Which AC50 does the source give for `CC1CCN(CCCNC(=O)C2CC(=O)N(C3CCCCCC3)C2)CC1` (configuration not stated) here?
Answer: Its AC50 is 5.01 µM [rising, single point].

Question: For `CCC(Oc1ccccc1)C(=O)N1CCC(C(N)=O)CC1` (configuration not stated), which AC50 is on record?
Answer: Its AC50 is 25.1 µM [rising, single point].

Question: For `Cc1ccc(-n2c(C)cn(C(=O)c3ccccc3)c2=S)cc1`, which AC50 is on record?
Answer: The AC50 was 0.794 µM [falling, full curve].
